Data taken from publication PMC7819943, “Rice protein-binding microarrays: a tool to detect cis-acting elements near promoter regions in rice”.
The other results are listed elsewhere or left out.

Chains of the proteins cited; added tags and fusions are not shown.
UniProt Q0JBA9, entry or part of it: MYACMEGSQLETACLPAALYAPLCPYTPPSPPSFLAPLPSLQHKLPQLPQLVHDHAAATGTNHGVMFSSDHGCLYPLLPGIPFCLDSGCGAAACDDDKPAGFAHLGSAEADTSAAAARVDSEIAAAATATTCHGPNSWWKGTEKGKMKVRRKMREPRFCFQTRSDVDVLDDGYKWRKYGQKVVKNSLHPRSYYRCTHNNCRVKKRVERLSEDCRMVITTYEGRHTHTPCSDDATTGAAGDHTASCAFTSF

molecular target: OsWRKY34 (Oryza sativa, UniProt Q0JBA9 1-250); assay: protein-binding microarray (RPBM); PBS, 2% BSA, 51.3 ng/ul salmon testes DNA, 50 uM zinc acetate, 200 nM TF, 25 C, 1 h; high values mean tight binding; settings: protein: recombinant; tags: N-terminal polyhistidine and DsRed monomer fusion (pET32a); label: CyDye5-dUTP incorporated in the synthesized complementary strand; 3' TTTTT single-stranded linker to array surface; dsDNA, one strand shown
Procedure, shortened: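 A custom Agilent array was converted to double-stranded form by primer extension with Cy5-dUTP and blocked with 2% BSA. Protein at 200 nM in PBS with 2% BSA, salmon testes DNA and 50 µM zinc acetate was applied for 1 h at 25 °C, followed by washing. The proteins were polyhistidine–DsRed N-terminal fusions of transcription factors, expressed in E. coli BL21-CodonPlus and Ni–NTA-purified. The binding signal is per-feature fluorescence intensity (arbitrary units) from an Axon 4000B scanner.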

**Q.** How did the binding signal turn out when “GTGTTGTGGTTGAATGGTCAGAAAAGCGGTAATGTTGGCACGGAGTCACCTAGTGCAG” was run?
**A.** 8440 fluorescence intensity (a.u.)

**Q.** For “GGCTGTTCATTTCTGATAGACGGAGCAGATTAGCGCTAATCGGAGTCACCTAGTGCAG”, which binding signal is on record?
**A.** 8140 fluorescence intensity (a.u.)

**Q.** Which binding signal does the source give for “GGTTTTTCCTAGTTTTGAGATTTACGTGCTATTTTGTGAACGGAGTCACCTAGTGCAG” here?
**A.** 8950 fluorescence intensity (a.u.)

**Q.** Which binding signal does the source give for “GGAATTTCTCAGCTCACACGAGTCACGGACCCACCACCACCGGAGTCACCTAGTGCAG” here?
**A.** 8960 fluorescence intensity (a.u.)

**Q.** Which binding signal does the source give for “TTGTTCGCTGTGCTCCCGGCTTATACTCATACTTCGGTCTCGGAGTCACCTAGTGCAG” here?
**A.** 9250 fluorescence intensity (a.u.)

**Q.** “ATCACCGCTTACACCACACCCCGTGACGTGTCACTTTCCACGGAGTCACCTAGTGCAG” was tested. Which binding signal did it give?
**A.** 8700 fluorescence intensity (a.u.)

**Q.** With “TGGGGAGTTAAACATATCAGGTATTGTGGTTGAAGGAGATCGGAGTCACCTAGTGCAG” as the sequence, how does the binding signal read?
**A.** 9690 fluorescence intensity (a.u.)

**Q.** “GTGAGAAAGTTTGTTTCGTTTTCCGCGCACATGTTTCCCGCGGAGTCACCTAGTGCAG” was tested. Which binding signal did it give?
**A.** 8980 fluorescence intensity (a.u.)

**Q.** “GGCTGTGGAGGGAGGGAGCACCGGCGACGGTGGCAGGCCGCGGAGTCACCTAGTGCAG” was tested. Which binding signal did it give?
**A.** 12000 fluorescence intensity (a.u.)

**Q.** With “ACACCCTCGTACATTTCTCCTGCTCATCTGTTTTCTTCGACGGAGTCACCTAGTGCAG” as the sequence, how does the binding signal read?
**A.** 13600 fluorescence intensity (a.u.)

**Q.** With “GCGCTCAATCTCCGGCGTCGGTATCCACTCCAGCAACTCCCGGAGTCACCTAGTGCAG” as the sequence, how does the binding signal read?
**A.** 11100 fluorescence intensity (a.u.)

**Q.** Which binding signal does the source give for “CCAGCCACCCACCCACCGGCCTAAACCACGGCGGCCCATTCGGAGTCACCTAGTGCAG” here?
**A.** 9360 fluorescence intensity (a.u.)

**Q.** Which binding signal does the source give for “ATATGGCATCTCGGTTTCGTCTTAACAGGGTATTGCACTACGGAGTCACCTAGTGCAG” here?
**A.** 9900 fluorescence intensity (a.u.)

**Q.** How did the binding signal turn out when “CACCGTCTGTCCGTCTCGTCGGTGAGCCGCCCGCGACCTCCGGAGTCACCTAGTGCAG” was run?
**A.** 9910 fluorescence intensity (a.u.)

**Q.** “TGTAATTATTCCCTCAGGTATCAATCAATTCAGTTAACTTCGGAGTCACCTAGTGCAG” was tested. Which binding signal did it give?
**A.** 8650 fluorescence intensity (a.u.)

**Q.** Which binding signal does the source give for “TCGTCCCGCCATTTCCGCGCGTTGCCTTCTCGCCGCGCGACGGAGTCACCTAGTGCAG” here?
**A.** 9530 fluorescence intensity (a.u.)

**Q.** With “TCCTTATTCAACAATTTGTCTGATACTTGCATGCCCACAGCGGAGTCACCTAGTGCAG” as the sequence, how does the binding signal read?
**A.** 9820 fluorescence intensity (a.u.)

**Q.** How did the binding signal turn out when “ATTTTTTTCGGTTTGGTTGATTTTATTGAGTTACATTTACCGGAGTCACCTAGTGCAG” was run?
**A.** 10900 fluorescence intensity (a.u.)

**Q.** “GCGTTGTATCCGGTTTGGTTTTGTGGTTCAAGGACGATTTCGGAGTCACCTAGTGCAG” was tested. Which binding signal did it give?
**A.** 10500 fluorescence intensity (a.u.)

**Q.** Which binding signal does the source give for “GTCCTTCGCGCGCGCCTCGCCGCGCCATGCCGCGCGCGTCCGGAGTCACCTAGTGCAG” here?
**A.** 8920 fluorescence intensity (a.u.)

**Q.** How did the binding signal turn out when “CTCAATTAATTACATATTATTACCACATCTTTTTACGTAACGGAGTCACCTAGTGCAG” was run?
**A.** 9660 fluorescence intensity (a.u.)

**Q.** How did the binding signal turn out when “GCTCGCCGTCACGCCGCTCCTCTCCCTCGCCGGTGCGCCACGGAGTCACCTAGTGCAG” was run?
**A.** 8100 fluorescence intensity (a.u.)

**Q.** How did the binding signal turn out when “ATGTGGTTTGGTGAGCGCCGCTGTGCCCACCTAACCCACACGGAGTCACCTAGTGCAG” was run?
**A.** 27300 fluorescence intensity (a.u.)
